Data as given in PubChem BioAssay AID686943 (Drosophila RNAi Screening Center, 2013).
Screen: 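Knockdowns that increase or decrease active ERK after insulin receptor stimulation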 (primary screen). Cells: Drosophila S2R+ haemocyte-like cells expressing YFP-tagged ERK (Rolled). Reagent: long dsRNA against Drosophila genes. Treatment: insulin stimulation versus unstimulated cells; dose and duration not given. Read-out: 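Per-plate z-scores of phospho-ERK immunostaining normalised to YFP-tagged ERK, measured with and without insulin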. Reading the numbers: replicate 1, z-score of dpERK with insulin and replicate 2, z-score of dpERK with insulin: higher = more active ERK per ERK-YFP after insulin.
The screen tested about 23,000 reagents; this is a random part of those with a known target gene and a result. 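Extra replicates exist only for a retested subset of genes; insulin dose and duration not given; both raised and lowered dpERK matter.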 Not all columns of the deposit are shown. Not stated in the record: the amount of reagent, the time to read-out.

CG1137 (GeneID 40803) [SID104192321]
- replicate 1, z-score of dpERK with insulin: 0.26
- replicate 2, z-score of dpERK with insulin: 0.2

GstT3 (GeneID 33047) [SID104200333]
- replicate 1, z-score of dpERK with insulin: -0.14
- replicate 2, z-score of dpERK with insulin: 0.12

CG7514 (GeneID 38571) [SID104188389]
- replicate 1, z-score of dpERK with insulin: -0.15
- replicate 2, z-score of dpERK with insulin: 0.61

Dro (GeneID 36635) [SID104187198]
- replicate 1, z-score of dpERK with insulin: 0.2
- replicate 2, z-score of dpERK with insulin: 0.22

Ogdh (GeneID 39899) [SID104189646]
- replicate 1, z-score of dpERK with insulin: -0.17
- replicate 2, z-score of dpERK with insulin: 0.24

Ogdh (GeneID 39899) [SID104189647]
- replicate 1, z-score of dpERK with insulin: 0.18
- replicate 2, z-score of dpERK with insulin: 0.6

Kif19A (GeneID 41717) [SID104196368]
- replicate 1, z-score of dpERK with insulin: 0.96
- replicate 2, z-score of dpERK with insulin: 0.09

RpS8 (GeneID 43532) [SID104196110]
- replicate 1, z-score of dpERK with insulin: 1.26
- replicate 2, z-score of dpERK with insulin: -0.03

CR33319 (GeneID 3772025) [SID104181618]
- replicate 1, z-score of dpERK with insulin: 2.25
- replicate 2, z-score of dpERK with insulin: 0.7

CG13039 (GeneID 39805) [SID104189712]
- replicate 1, z-score of dpERK with insulin: 0.17
- replicate 2, z-score of dpERK with insulin: -0.83

CG34265 (GeneID 5740186) [SID104187822]
- replicate 1, z-score of dpERK with insulin: -0.24
- replicate 2, z-score of dpERK with insulin: -0.12

PLCXD (GeneID 34623) [SID104182219]
- replicate 1, z-score of dpERK with insulin: 1.58
- replicate 2, z-score of dpERK with insulin: -1.12

JMJD6 (GeneID 42616) [SID104195579]
- replicate 1, z-score of dpERK with insulin: -0.52
- replicate 2, z-score of dpERK with insulin: -0.77

vap (GeneID 32569) [SID104200067]
- replicate 1, z-score of dpERK with insulin: 0.77
- replicate 2, z-score of dpERK with insulin: 1.06

CG12692 (GeneID 31372) [SID104197673]
- replicate 1, z-score of dpERK with insulin: 0.16
- replicate 2, z-score of dpERK with insulin: -0.81

CG1582 (GeneID 32021) [SID104199524]
- replicate 1, z-score of dpERK with insulin: 0.82
- replicate 2, z-score of dpERK with insulin: 0.15

Vlet (GeneID 32116) [SID104199637]
- replicate 1, z-score of dpERK with insulin: 1.22
- replicate 2, z-score of dpERK with insulin: 0.95

Tnpo (GeneID 38721) [SID104191101]
- replicate 1, z-score of dpERK with insulin: -0.28
- replicate 2, z-score of dpERK with insulin: 0.04

CG42755 (retired record) (GeneID 10178886) [SID104188897]
- replicate 1, z-score of dpERK with insulin: 0.55
- replicate 2, z-score of dpERK with insulin: 0.3

CG42755 (retired record) (GeneID 10178886) [SID104188898]
- replicate 1, z-score of dpERK with insulin: 0.25
- replicate 2, z-score of dpERK with insulin: 0.35

Records above whose gene name begins with O or o:
Ogdh (GeneID 39899) [SID104189646]
- replicate 1, z-score of dpERK with insulin: -0.17
- replicate 2, z-score of dpERK with insulin: 0.24

Ogdh (GeneID 39899) [SID104189647]
- replicate 1, z-score of dpERK with insulin: 0.18
- replicate 2, z-score of dpERK with insulin: 0.6

More records follow.
Elp5 (GeneID 38287) [SID104188339]
- replicate 1, z-score of dpERK with insulin: -0.51
- replicate 2, z-score of dpERK with insulin: 0.08

gt (GeneID 31227) [SID104198574]
- replicate 1, z-score of dpERK with insulin: -3.29
- replicate 2, z-score of dpERK with insulin: -1.74

eRF1 (GeneID 40240) [SID104191571]
- replicate 1, z-score of dpERK with insulin: 0.08
- replicate 2, z-score of dpERK with insulin: -0.02

CG8768 (GeneID 36400) [SID104187051]
- replicate 1, z-score of dpERK with insulin: -0.34
- replicate 2, z-score of dpERK with insulin: 0.31

btv (GeneID 35073) [SID104181407]
- replicate 1, z-score of dpERK with insulin: -0.31
- replicate 2, z-score of dpERK with insulin: -1.37

btv (GeneID 35073) [SID104182241]
- replicate 1, z-score of dpERK with insulin: -0.14
- replicate 2, z-score of dpERK with insulin: 0.23

Np (GeneID 35904) [SID104185881]
- replicate 1, z-score of dpERK with insulin: 0.66
- replicate 2, z-score of dpERK with insulin: 0.07

Np (GeneID 35904) [SID104186886]
- replicate 1, z-score of dpERK with insulin: 0.81
- replicate 2, z-score of dpERK with insulin: 0.4

Np (GeneID 35904) [SID104201893]
- replicate 1, z-score of dpERK with insulin: 0.18
- replicate 2, z-score of dpERK with insulin: 0.47

Scp1 (GeneID 3355102) [SID104200591]
- replicate 1, z-score of dpERK with insulin: 0.41
- replicate 2, z-score of dpERK with insulin: 0.44

Scp1 (GeneID 3355102) [SID104200595]
- replicate 1, z-score of dpERK with insulin: -0.4
- replicate 2, z-score of dpERK with insulin: -0.95

Scp1 (GeneID 3355102) [SID104200598]
- replicate 1, z-score of dpERK with insulin: -0.17
- replicate 2, z-score of dpERK with insulin: -0.28
